Measurements published in the supplement of paper PMC4683952.
This is one part of the list. Cut-off read from the data, not from the text of the source: active = 2 or more and inactive = the rest. Repeats in this data set agree poorly, so a single value says little.

Tested on: Lgr5 (MarsCy1-Lgr5-EGFP, U2OS)
Assay: cell-surface Lgr5 expression (SCi1 fluorescence, background-subtracted) relative to WT DMSO (fold of DMSO control); higher = more Lgr5 at the plasma membrane
Details: U2OS MarsCy1-Lgr5-EGFP stable; treatment time: overnight; library: ActiProbe-5K (TimTec); 25 µM

cell-surface Lgr5 expression, active:
CN(CCOc1ccccc1)S(=O)(=O)c1ccc2oc3ccccc3c2c1 2.63

cell-surface Lgr5 expression, inactive:
CC1CCc2onc(C(=O)O)c2C1 (stereo unspecified) 1.21
Nc1nonc1-c1noc(CCl)n1 0.865
CCCCCCCCC1CCCC1=O (stereo unspecified) 0.976
c1ccc2ncc(-c3ccc4ccccc4n3)cc2c1 1.14
Cc1cc(C)c(CO)c(C)c1/C=N\O 1.08
CC(C)COC(=O)C(C)Nc1n[nH]c(=S)[nH]c1=O (stereo unspecified) 0.895
CC(=O)c1sc2nc(=O)c(C)nn2c1C 1.14
Nc1nonc1C(=O)N1CCOCC1 1.31
Cn1nnnc1SCc1nc(N)nc(N2CCCCC2)n1 1.23
O/N=C\c1cc(Br)c(Sc2ccc(Cl)cc2)o1 1.02
C1(/C(CC(CC1=O)(C)C)=O)=C(\NCCN1CCNCC1)C 1.11
CS(=O)(=O)c1nc2ccccc2[nH]1 1.31
CC(C)COC(=O)CCNc1n[nH]c(=O)[nH]c1=O 1.22
Cc1cc(Br)c(S(=O)(=O)C(C)(C)C)c(Br)c1 1.1
c1cc2cc(CNC3CC3)ccc2[nH]1 1.41
COc1ccc(/C=N\N=C2N=C(O)/C(=C\c3ccc(OC)cc3)S/2)cc1 1.13
Nc1nc(-c2cccnc2)nc2ccccc12 1.49
Cc1cc(C)nc(Oc2ccc(Br)cc2Br)n1 1.07
Cc1cc(C)nc(S)n1.Cl 1.02
SC1=NC2(CCCC2)C2=C(CCC2)N1 1.07
Nc1nnc(CCC(=O)O)s1 1.24
COC(=O)C(NC(=O)C(F)(F)F)(c1cccn1C)C(F)(F)F (stereo unspecified) 1.01
C#CC(C)(C)OC(=O)C1C2C=CC(C2)C1C(=O)OCC(=C)Cl (stereo unspecified) 0.943
CS(=O)(=O)Nc1ccc(F)cc1F 1.11
O=c1[nH]c(=O)c2nc3ccccc3nc2[nH]1 1.24
COC(=O)Cn1c(=O)n(C)c2c(=O)n(C)c(=O)n(C)c21 1.2
O=Cc1ccc(N2CCCC2)c([N+](=O)[O-])c1 1.05
OCCOc1c(Cl)cc(Cl)c2cccnc12 0.896
Cc1[nH]nc2c1C1(CCC3(CC1)OCCO3)C(C#N)=C(N)O2 1.25
NNc1nnc2c(n1)[nH]c1ccccc12 1.9
O=C1N=C(c2ccccc2)C(c2ccccc2)N1 (stereo unspecified) 1.2
Clc1nsnc1N1CCOCC1 1.28
Cn1cnnc1SCCC(=O)O 0.999
CCn1ncc(Cl)c1C(=O)NC(Cn1cccn1)C(C)(C)C (stereo unspecified) 1.08
CN(C)c1ccc2nc3ccc(=O)cc-3sc2c1 0.998
Nc1ccc2cc3ccc(N)cc3nc2c1 0.628
CCOC(=O)/C(C#N)=C\Nc1cnc(C)o1 1.08
NS(=O)(=O)c1ccc2oc3ccccc3c2c1 1.36
CN(/N=C/c1ccc(Cl)cc1)C1=NS(=O)(=O)c2ccccc21 1.57
COc1cc([N+](=O)[O-])ccc1[O-].O.[K+] 1.24
CC1(C)C2CCC(C2)C1(C)NC(=O)CNCCCN1CCOCC1 (stereo unspecified) 1.49
OCC1OC(Nc2ccc(Br)cc2)C(O)C1O (stereo unspecified) 0.903
CSc1nc(N)c(C#N)cc1C#N 0.836
O=S(=O)(Nc1ncccn1)c1ccc(-n2cccc2)cc1 0.992
Cc1cc(N)nc(SC(C)CN(C)C)n1 (stereo unspecified) 0.939
CSc1nsc(SC)c1C(=O)NCCCn1nc(C(F)(F)F)c(Cl)c1C 1
O=S(=O)(Nc1ccc2c(c1)OCCO2)c1ccc2ccccc2c1 1.17
COc1ccc2cc3[n+](cc2c1OC)CCc1cc2c(cc1-3)OCO2 1.17
c1ccc2c(c1)-c1ccccc1C21SCCCS1 1.34
Fc1ccc(-c2nnc(-c3ccc(Cl)cc3Cl)o2)cc1 1.06
N#C/C(=C/c1cccs1)C(N)=S 0.92
CN1CCN(C(=O)C2C3C=CC(C3)C2C(=O)O)CC1 (stereo unspecified) 1.1
c1cn(-c2ccc(N3CCCCC3)nn2)cn1 0.957
CC1(C2CC(C(F)(F)F)n3nc(C(=O)O)cc3N2)CC1 (stereo unspecified) 1.23
C#CC[N+](C)(C)CC(=O)c1ccccc1.[Br-] 0.925

4 consecutive records already listed, for reference:
cell-surface Lgr5 expression, inactive:
Cc1cc(Br)c(S(=O)(=O)C(C)(C)C)c(Br)c1 1.1
c1cc2cc(CNC3CC3)ccc2[nH]1 1.41
COc1ccc(/C=N\N=C2N=C(O)/C(=C\c3ccc(OC)cc3)S/2)cc1 1.13
Nc1nc(-c2cccnc2)nc2ccccc12 1.49
